Assay results published in patent US20240277806A1.
No constants are given. Whether binding was seen depends on the method and setting. Some results given as binding are weak or reduced against the parent protein; the word gives no strength.

Chains of the proteins cited; added tags and fusions are not shown. Lines headed by an entry give the natural chain unless they say otherwise; changes in a name come on top. Residues count along the entry.
UniProt P22004, residues 382-513: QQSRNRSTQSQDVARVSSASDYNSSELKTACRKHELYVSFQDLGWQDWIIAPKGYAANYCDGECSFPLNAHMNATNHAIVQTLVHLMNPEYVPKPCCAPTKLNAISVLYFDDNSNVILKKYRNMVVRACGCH
UniProt P27037: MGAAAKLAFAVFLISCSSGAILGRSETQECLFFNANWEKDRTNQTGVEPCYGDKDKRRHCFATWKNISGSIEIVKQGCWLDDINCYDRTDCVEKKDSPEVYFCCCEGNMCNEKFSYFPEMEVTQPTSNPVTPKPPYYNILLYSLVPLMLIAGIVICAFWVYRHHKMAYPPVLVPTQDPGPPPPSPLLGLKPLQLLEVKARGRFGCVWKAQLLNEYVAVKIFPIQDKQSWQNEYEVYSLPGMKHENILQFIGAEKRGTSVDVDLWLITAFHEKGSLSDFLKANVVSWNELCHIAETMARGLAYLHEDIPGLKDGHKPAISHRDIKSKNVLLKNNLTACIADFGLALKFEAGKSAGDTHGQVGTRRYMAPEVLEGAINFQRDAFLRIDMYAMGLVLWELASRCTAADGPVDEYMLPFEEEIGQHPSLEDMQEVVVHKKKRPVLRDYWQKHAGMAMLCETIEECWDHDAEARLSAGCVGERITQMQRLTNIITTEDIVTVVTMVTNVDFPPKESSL

Assays:
GDF8 = target: T1, GDF8 (UniProt O14793); assay: similar binding assay (SPR, Biacore)
T1 sequence (looked up): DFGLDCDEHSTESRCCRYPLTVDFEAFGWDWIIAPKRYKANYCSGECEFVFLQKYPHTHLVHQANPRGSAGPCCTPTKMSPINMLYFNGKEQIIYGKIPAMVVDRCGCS

BMP10 = target: T2, BMP10 (UniProt O95393); assay: similar binding assay (SPR, Biacore)
T2 sequence (looked up): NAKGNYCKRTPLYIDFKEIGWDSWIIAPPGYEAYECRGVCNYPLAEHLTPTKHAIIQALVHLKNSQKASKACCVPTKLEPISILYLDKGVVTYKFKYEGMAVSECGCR

activin B = target: T3, activin B (UniProt P09529); assay: similar binding assay (SPR, Biacore)
T3 sequence (looked up): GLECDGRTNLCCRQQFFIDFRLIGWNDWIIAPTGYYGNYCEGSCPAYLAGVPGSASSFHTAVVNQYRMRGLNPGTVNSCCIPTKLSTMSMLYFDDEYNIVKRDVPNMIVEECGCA

BMP6 = BMP6 (UniProt P22004); assay: similar binding assay (SPR, Biacore)
GDF11 = target: T4, GDF11 (UniProt O95390); assay: SPR (Biacore), GDF11 amine-coupled to CM5 chip, ActRIIA-mFc as analyte
T4 sequence (looked up): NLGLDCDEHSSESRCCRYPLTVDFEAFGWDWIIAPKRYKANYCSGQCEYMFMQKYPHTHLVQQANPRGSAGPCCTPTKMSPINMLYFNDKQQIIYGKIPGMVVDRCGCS

Measured: binding

ActRIIA-mFc (from UniProt P27037 21-135) (Fc fusion)
binds: all assays above
